According to US20180055819A1, “USE OF STATINS IN THE TREATMENT OF ISCHEMIC DISEASES” (Peking University Third Hospital, priority 2016, published 2018):
Entries after “also recorded” stand apart in the source; their conditions may differ. For at least one compound, name, drawing or mass did not settle the structure.

Experiments:
Assay type in all cases: in vivo
[1] = test system: C57 mice; test: OSTEOSENSE and ANGIOSENSE fluorescent probe imaging after intraosseous injection; conditions: local intraosseous injection 1 mg; 4 weeks
[2] = test system: ApoE-/- mice; test: High fat diet induced atherosclerosis; conditions: 8 weeks
[3] = test system: rat middle cerebral artery occlusion (MCAo) model; test: Middle cerebral artery occlusion (MCAo) induced cerebral ischemia; conditions: local single intraosseous injection 0.5 mg; three days later; vs control group
[4] = local single intraosseous injection
[5] = serum, local single intraosseous injection

How did the “bone formation at the injection site (OSTEOSENSE)” value [1] turn out when `CCC(C)(C)C(=O)O[C@H]1C[C@@H](C)C=C2C=C[C@H](C)[C@H](CC[C@@H]3C[C@@H](O)CC(=O)O3)[C@H]21` [simvastatin] was run?
Its value is “still active on bone formation”.

What about the “vascular signals in liver, spleen, kidney and pancreas (ANGIOSENSE)” value [1] of the same compound?
The value was “improves systemic angiogenesis; also recorded: strong vascular signals”.

And the “plaque size (oil red O, en face aorta and aortic root)” value ([2]; local single intraosseous injection 0.5 mg, 1 mg)?
Its value is “significantly reduced”.

And the “concentration of serum nitric oxide (ELISA)” value [2, 4]?
Its value is “significantly increased”.

And the “low density lipoprotein cholesterol” value [2, 4]?
Its value is “significantly decreased”.

And the “number of EPCs in peripheral blood (FACS)” value [2, 4]?
Its value is “significantly increased”.

What about the total cholesterol [2, 4] of the same compound?
Its total cholesterol is “significantly decreased”.

And the triglyceride [2, 4]?
The triglyceride was “significantly decreased”.

And the “high-sensitivity C-reactive protein concentration (ELISA)” value [2, 5]?
Its value is “significantly decreased”.

And the “osteopontin concentration (ELISA)” value [2, 5]?
The value was “significantly decreased”.

What about the “collateral circulation reconstruction (MICROFIL perfusion, micro-CT)” value [3] of the same compound?
Its value is “promotes angiogenesis; also recorded: significantly higher”.

And the “infarct area (TTC staining)” value [3]?
The value was “significantly lower”.
